Data as given in PubChem BioAssay AID1259308 (NCATS, 2017)
Assay: 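Candidate targets for better recombinant protein yield in mammalian cells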 (primary screen). System: human HEK293 embryonic kidney cells stably expressing firefly luciferase (HEK-CMV-Luc2-Hygro). Reagent: single siRNA against human genes, 0.8 pmol siRNA per well. Timing: 72 h. Measured: 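Reporter luminescence and viable-cell signal on separate replicate plates, given as percent of non-targeting control and median/MAD z-scores, plus per-cell luciferase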. Reading the numbers: total luciferase, z-score: higher = more reporter protein produced. Rule for the call: 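An siRNA counts as active if its total luciferase robust z-score exceeds 3; genes with two or more such siRNAs out of three were retested with fresh siRNAs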. Meaning of the calls: active = raised luciferase; inactive = no rise.
Shown is a random part of about 59,000 deposited reagents. In the full data, about 1,510 (2.6%) got an active call. 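Calls use total luciferase alone and ignore viability, so some active siRNAs may act by altering cell number.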 A number with no mark means an inactive call. The numbers tell different reagents against one gene apart. Not all columns of the deposit are shown.

gene | siRNA no. | total luciferase, z-score
OARD1 | 1 | 1.55
OARD1 | 2 | -1.14
OARD1 | 3 | 1.23
OR2C1 | 1 | -0.75
OR2C1 | 2 | 1.81
OR2C1 | 3 | -0.768
EHMT1 | 1 | -0.168
EHMT1 | 2 | -0.41
EHMT1 | 3 | 2.91
EHMT1 | 4 | -0.947
EHMT1 | 5 | 0.463
EHMT1 | 6 | -0.251
TERT | 1 | -0.229
TERT | 2 | -1.79
TERT | 3 | -0.93
FAIM | 1 | -0.243
FAIM | 2 | 1.31
FAIM | 3 | 2.3
CIBAR1 | 1 | 1.31
CIBAR1 | 2 | 0.298
CIBAR1 | 3 | 0.481
UBXN11 | 1 | 2.58
UBXN11 | 2 | -0.206
UBXN11 | 3 | 0.624
SLC30A6 | 1 | 1.95
SLC30A6 | 2 | 0.454
SLC30A6 | 3 | -0.335

Quoted from above, 10 entries:
gene | siRNA no. | total luciferase, z-score
OARD1 | 2 | -1.14
OARD1 | 3 | 1.23
OR2C1 | 1 | -0.75
OR2C1 | 2 | 1.81
OR2C1 | 3 | -0.768
EHMT1 | 1 | -0.168
EHMT1 | 2 | -0.41
EHMT1 | 3 | 2.91
EHMT1 | 4 | -0.947
EHMT1 | 5 | 0.463

Further records:
gene | siRNA no. | total luciferase, z-score
ISL1 | 1 | -0.499
ISL1 | 2 | 1.82
ISL1 | 3 | 1.04
HYDIN | 1 | -0.314
HYDIN | 2 | 0.12
HYDIN | 3 | -1.08
ADPRM | 1 | 0.229
ADPRM | 2 | -1.65
ADPRM | 3 | 0.433
XPNPEP2 | 1 | 1.33
XPNPEP2 | 2 | 1.13
XPNPEP2 | 3 | 0.57
ZNF66 | 1 | 2.24
ZNF66 | 2 | -0.808
ZNF66 | 3 | 0.0386
MRAP | 1 | 0.361
MRAP | 2 | 0.338
MRAP | 3 | 1.43
GMFB | 1 | -0.158
GMFB | 2 | 2.31
GMFB | 3 | 0.124
UBE2W | 1 | -0.251
UBE2W | 2 | -0.858
UBE2W | 3 | -1.12
ARHGAP5-AS1 | 1 | 1.9
ARHGAP5-AS1 | 2 | -1.94
ARHGAP5-AS1 | 3 | 0.0388
KLK9 | 1 | -0.121
KLK9 | 2 | 0.0213
KLK9 | 3 | 1.49
EIF4E1B | 1 | -0.426
EIF4E1B | 2 | 0.63
EIF4E1B | 3 | 0.76
OR56A4 | 1 | -2.76
OR56A4 | 2 | -0.352
OR56A4 | 3 | 2.42
PPME1 | 1 | 0.27
PPME1 | 2 | -0.262
PPME1 | 3 | 1.71
PDK3 | 1 | -1.21
PDK3 | 2 | 0.75
PDK3 | 3 | -0.192
TLN2 | 1 | -0.425
TLN2 | 2 | 0.0165
TLN2 | 3 | -0.22
ZBTB48 | 1 | -0.778
ZBTB48 | 2 | -0.268
ZBTB48 | 3 | -0.0859
